The source of these data is patent US20230173018A1, “CASPOFUNGIN DERIVATIVES AND ASSAYS FOR EVALUATING ANTIFUNGAL TREATMENT EFFICACY” (priority 2020, published 2023).

Structures are written as SMILES.

Holding throughout (assay type): cell-based
For data set [1], the system named is C. albicans and C. glabrata strains. In words: Probe 1 localization and uptake in caspofungin-resistant vs parental/responsive strains.
Another data set has as its system C. glabrata strains. In words: Probe 1 uptake, responsive vs resistant strains, flow cytometry. The conditions noted are these: for average level of fluorescence (probe uptake): 1 μM, 15 min. Background: A flow cytometer gives signals particle by particle.
Data set [2] deals with C. albicans SC5314 cells. In words: Probe 1 localization in PBS vs YPAD, microscopy. To be noted: 1 μM.
In data set [3] the test system is C. albicans SC5314 cells. Put plainly: Probe 1 localization and integrated density per cell with or without glucose, microscopy. The conditions noted are these: for localization of probe: FIG. 5B.
The test system of data set [4] is four C. albicans and two C. glabrata strains. Put plainly: Cellular distribution of fluorescent probes, live cell fluorescence microscopy. To be noted: FIG. 3A.
The next data set has as its system C. albicans strains. Put plainly: Probe 1 uptake, responsive vs resistant strains, flow cytometry. The conditions noted are these: for average level of fluorescence (probe uptake): 1 μM, 15 min.

For `CC[C@H](C)C[C@H](C)CCCCCCCCC(=O)N[C@H]1C[C@@H](O)[C@@H](NCCN)NC(=O)[C@@H]2[C@@H](O)CCN2C(=O)[C@H]([C@H](O)CCN)NC(=O)[C@H]([C@H](O)[C@@H](O)c2ccc(OCc3cn(CCCNC(=O)c4ccc(-c5c6ccc(=[N+](C)C)cc-6oc6cc(N(C)C)ccc56)c(C(=O)[O-])c4)nn3)cc2)NC(=O)[C@@H]2C[C@@H](O)CN2C(=O)[C@H]([C@@H](C)O)NC1=O` [Compound 1], the “resistant strains with statistically significant increase in probe uptake relative to parental strains” value in data set [1] (1 μM, flow cytometry, FIG. 8B) was 80%. The “strains with uptake values above the cutoff lines confirmed as resistant” value in data set [1] (both species) was found to be 100%. Also, in data set [1] (four resistant strains, 1 μM, 60 min PBS, FIG. 8A), the “subcellular localization in echinocandin-resistant progeny strains” value is “localized to the vacuole”. Moreover, the “echinocandin-resistant strains tested resistant using the calculated cutoff lines” value is recorded as 77% in the data set on C. glabrata strains (C. glabrata, probe uptake cutoff) and 71% in the data set with C. albicans strains (C. albicans, probe uptake cutoff). Further, the “average level of fluorescence (probe uptake)” value in the data set on C. glabrata strains (caspofungin-resistant C. glabrata strains) came out at 6.5±0.5; in the data set with C. glabrata strains (caspofungin-responsive C. glabrata strains) it was 3.9±0.2; with C. albicans strains (caspofungin-resistant C. albicans strains) it was 10.8±1.4; in the data set with C. albicans strains (caspofungin-responsive C. albicans strains), 6.3±0.5. Besides, the localization of probe result is recorded as “remained concentrated at the vacuole” in the data set with C. albicans SC5314 cells [2] (PBS, 2 hours); “entire cytoplasm was brightly stained” with C. albicans SC5314 cells [2] (YPAD, after 2 h); “accumulated primarily at the cell envelope” in the data set with C. albicans SC5314 cells [3] (in the absence of glucose); “accumulated in the vacuole” with C. albicans SC5314 cells [3] (in the presence of glucose). The “Integrated density per cell” value is on record as “(8.29 ± 2.56) × 10^6 RFU” in the data set on C. albicans SC5314 cells [3] (with 2% glucose (+)) and “(7.99 ± 1.64) × 10^6 RFU” in the data set with C. albicans SC5314 cells [3] (without glucose (−)). Besides, the “time to fluorescently labeled vesicular structures” value in data set [4] (after addition of probe (1 μM), time-lapse) was not above 1 min. For the same molecule, the “time to localization to the vacuole” value in data set [4] (probe 1 μM in PBS, co-localization with CellTracker Blue CMAC) is on record as not above 15 min.
